Measurements from the supplement of paper PMC10849652.
The other results are listed elsewhere or left out.

Sequences of proteins named here, by UniProt entry; tags and fusion partners are left off. A change or cut given only in a name is not applied to a line headed by its entry.
UniProt Q8N448: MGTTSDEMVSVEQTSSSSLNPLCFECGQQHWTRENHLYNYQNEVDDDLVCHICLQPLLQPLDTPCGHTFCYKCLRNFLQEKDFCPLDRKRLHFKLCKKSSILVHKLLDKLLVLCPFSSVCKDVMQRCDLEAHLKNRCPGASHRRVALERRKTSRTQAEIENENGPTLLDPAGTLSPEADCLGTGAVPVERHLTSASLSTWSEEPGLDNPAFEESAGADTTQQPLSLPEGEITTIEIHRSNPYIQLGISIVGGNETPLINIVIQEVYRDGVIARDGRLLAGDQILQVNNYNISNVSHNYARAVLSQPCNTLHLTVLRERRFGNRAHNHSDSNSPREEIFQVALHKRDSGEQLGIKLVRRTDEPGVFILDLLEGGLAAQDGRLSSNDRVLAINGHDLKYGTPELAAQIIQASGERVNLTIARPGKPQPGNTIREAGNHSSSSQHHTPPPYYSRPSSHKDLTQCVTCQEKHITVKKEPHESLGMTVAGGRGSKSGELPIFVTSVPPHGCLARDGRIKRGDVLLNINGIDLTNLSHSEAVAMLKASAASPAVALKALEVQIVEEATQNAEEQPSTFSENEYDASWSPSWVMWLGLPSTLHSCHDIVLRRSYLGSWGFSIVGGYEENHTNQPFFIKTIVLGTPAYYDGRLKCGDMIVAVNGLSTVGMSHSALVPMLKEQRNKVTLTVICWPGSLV
UniProt Q5SW96: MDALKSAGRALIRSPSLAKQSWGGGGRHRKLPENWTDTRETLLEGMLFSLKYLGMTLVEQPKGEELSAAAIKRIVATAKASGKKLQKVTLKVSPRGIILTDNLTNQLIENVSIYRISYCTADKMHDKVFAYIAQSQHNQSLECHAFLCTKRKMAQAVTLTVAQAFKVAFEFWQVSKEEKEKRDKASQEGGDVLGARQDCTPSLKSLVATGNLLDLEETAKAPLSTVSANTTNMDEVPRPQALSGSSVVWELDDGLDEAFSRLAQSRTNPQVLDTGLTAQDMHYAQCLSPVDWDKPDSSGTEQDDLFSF
UniProt Q5T3J3: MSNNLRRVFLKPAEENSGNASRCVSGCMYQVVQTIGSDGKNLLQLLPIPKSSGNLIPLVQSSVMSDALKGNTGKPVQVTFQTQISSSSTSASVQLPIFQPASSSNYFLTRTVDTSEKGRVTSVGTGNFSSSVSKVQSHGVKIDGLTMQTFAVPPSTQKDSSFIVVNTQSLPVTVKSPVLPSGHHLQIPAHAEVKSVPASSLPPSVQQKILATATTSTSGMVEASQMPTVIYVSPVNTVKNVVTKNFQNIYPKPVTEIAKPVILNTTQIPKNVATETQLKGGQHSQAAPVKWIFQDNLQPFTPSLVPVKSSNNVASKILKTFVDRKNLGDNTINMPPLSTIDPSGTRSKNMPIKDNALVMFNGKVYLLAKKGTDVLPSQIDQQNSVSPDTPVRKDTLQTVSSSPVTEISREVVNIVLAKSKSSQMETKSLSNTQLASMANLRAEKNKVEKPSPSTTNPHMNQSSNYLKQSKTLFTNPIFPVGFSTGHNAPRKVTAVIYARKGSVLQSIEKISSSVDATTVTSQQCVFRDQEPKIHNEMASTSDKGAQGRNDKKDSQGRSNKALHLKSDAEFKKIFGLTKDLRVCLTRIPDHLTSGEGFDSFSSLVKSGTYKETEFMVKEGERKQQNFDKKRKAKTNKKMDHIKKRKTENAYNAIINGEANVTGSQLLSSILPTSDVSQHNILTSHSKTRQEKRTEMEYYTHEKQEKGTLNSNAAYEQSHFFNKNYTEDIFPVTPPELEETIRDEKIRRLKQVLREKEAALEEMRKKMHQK
UniProt P61968: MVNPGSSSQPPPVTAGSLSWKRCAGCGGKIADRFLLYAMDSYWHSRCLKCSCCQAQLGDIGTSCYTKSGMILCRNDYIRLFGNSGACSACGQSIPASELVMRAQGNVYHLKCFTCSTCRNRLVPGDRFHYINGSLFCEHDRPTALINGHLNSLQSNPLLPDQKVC
UniProt P17931, whole entry, looked up: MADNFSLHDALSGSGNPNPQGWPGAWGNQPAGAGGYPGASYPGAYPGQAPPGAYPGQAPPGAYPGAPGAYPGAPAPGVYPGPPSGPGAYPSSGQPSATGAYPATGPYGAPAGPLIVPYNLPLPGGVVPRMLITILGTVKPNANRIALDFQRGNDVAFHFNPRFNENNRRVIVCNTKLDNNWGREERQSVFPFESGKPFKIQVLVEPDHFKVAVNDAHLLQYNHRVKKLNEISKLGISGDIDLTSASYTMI
UniProt Q6P5S2: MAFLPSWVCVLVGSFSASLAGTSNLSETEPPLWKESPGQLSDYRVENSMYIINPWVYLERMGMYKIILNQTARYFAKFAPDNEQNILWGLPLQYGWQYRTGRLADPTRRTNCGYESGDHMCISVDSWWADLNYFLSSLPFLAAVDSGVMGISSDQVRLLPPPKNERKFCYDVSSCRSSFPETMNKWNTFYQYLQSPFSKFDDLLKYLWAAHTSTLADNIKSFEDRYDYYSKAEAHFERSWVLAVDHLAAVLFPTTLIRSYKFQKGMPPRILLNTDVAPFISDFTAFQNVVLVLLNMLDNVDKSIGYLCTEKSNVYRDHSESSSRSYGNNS
UniProt Q9BX40: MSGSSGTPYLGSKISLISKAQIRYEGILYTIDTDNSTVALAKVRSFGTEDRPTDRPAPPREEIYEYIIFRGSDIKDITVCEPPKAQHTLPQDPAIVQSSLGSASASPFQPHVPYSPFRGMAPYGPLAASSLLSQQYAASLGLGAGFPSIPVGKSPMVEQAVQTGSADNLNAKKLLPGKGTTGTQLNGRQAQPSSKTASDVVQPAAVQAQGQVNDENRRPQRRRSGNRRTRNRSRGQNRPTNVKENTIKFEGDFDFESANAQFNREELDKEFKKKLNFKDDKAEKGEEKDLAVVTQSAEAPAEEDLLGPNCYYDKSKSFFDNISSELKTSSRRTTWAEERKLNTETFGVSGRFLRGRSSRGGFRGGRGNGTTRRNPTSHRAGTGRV
UniProt Q9C099: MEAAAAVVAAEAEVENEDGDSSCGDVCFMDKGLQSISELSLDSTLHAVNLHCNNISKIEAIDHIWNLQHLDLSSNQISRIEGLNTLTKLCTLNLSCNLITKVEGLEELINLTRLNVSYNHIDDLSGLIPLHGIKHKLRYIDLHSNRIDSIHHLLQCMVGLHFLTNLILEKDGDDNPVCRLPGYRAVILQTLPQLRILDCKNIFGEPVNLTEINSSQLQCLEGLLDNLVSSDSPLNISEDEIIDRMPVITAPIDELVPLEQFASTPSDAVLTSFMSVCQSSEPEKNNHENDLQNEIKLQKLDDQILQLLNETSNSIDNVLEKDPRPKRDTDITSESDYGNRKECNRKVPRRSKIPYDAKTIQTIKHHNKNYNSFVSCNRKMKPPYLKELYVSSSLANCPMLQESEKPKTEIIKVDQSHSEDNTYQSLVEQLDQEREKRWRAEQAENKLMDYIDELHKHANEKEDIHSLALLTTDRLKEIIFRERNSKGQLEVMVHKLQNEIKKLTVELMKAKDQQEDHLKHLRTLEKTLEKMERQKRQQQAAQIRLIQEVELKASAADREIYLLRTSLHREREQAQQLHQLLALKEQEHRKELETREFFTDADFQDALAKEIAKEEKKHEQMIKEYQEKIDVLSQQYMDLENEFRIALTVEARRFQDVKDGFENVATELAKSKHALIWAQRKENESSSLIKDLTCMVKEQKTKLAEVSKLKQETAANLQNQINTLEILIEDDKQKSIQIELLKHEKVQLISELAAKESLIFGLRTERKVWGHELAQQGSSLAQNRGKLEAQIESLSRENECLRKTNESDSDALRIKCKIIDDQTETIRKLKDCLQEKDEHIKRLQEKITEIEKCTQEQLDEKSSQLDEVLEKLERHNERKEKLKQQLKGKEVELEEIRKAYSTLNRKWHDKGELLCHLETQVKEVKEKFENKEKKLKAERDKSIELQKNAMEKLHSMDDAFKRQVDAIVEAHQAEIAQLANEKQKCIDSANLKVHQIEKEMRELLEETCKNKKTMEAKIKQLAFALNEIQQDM
UniProt Q6PJG9: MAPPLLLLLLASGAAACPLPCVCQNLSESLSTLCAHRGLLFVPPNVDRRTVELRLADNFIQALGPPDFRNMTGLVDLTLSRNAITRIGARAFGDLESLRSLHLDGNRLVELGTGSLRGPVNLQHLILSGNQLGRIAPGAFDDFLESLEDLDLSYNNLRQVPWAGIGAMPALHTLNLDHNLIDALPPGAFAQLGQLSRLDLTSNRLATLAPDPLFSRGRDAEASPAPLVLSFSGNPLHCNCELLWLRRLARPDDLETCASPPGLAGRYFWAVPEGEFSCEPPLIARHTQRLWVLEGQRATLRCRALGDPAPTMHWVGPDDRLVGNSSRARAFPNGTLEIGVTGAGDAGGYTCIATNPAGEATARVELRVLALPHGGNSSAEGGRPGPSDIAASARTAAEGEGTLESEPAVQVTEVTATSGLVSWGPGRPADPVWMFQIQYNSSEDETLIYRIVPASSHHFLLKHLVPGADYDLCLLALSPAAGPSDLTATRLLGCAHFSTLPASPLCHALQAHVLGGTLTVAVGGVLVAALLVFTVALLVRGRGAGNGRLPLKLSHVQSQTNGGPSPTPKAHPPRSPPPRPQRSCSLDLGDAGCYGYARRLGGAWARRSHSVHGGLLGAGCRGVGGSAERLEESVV
UniProt Q9Y333: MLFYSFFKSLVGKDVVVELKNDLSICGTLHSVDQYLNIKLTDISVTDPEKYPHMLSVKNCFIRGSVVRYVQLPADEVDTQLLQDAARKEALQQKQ
UniProt P07864: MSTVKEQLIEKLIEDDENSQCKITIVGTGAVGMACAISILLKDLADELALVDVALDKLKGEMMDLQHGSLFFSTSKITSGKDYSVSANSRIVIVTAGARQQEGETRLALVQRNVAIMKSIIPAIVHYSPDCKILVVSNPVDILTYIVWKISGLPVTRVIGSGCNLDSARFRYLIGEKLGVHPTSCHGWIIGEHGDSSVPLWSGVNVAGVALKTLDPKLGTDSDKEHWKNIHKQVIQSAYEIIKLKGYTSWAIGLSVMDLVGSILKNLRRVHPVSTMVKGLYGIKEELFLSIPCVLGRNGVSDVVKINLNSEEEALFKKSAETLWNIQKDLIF
UniProt Q9UK45: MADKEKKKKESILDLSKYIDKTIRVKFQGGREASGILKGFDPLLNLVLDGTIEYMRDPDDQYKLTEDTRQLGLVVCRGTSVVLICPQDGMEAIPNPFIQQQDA
UniProt Q15048: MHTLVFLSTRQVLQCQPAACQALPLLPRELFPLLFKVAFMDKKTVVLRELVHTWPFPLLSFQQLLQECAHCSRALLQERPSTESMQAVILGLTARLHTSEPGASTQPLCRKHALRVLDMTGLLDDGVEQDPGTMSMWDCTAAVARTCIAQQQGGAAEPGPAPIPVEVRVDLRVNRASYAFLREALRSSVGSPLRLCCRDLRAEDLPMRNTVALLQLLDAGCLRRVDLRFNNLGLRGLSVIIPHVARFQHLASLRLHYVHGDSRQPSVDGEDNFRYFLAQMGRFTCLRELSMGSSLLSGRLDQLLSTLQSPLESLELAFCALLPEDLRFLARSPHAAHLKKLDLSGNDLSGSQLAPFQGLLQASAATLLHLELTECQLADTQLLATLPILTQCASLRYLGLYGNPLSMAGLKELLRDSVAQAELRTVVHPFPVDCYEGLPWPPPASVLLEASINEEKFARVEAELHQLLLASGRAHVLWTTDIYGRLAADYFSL
UniProt Q08380: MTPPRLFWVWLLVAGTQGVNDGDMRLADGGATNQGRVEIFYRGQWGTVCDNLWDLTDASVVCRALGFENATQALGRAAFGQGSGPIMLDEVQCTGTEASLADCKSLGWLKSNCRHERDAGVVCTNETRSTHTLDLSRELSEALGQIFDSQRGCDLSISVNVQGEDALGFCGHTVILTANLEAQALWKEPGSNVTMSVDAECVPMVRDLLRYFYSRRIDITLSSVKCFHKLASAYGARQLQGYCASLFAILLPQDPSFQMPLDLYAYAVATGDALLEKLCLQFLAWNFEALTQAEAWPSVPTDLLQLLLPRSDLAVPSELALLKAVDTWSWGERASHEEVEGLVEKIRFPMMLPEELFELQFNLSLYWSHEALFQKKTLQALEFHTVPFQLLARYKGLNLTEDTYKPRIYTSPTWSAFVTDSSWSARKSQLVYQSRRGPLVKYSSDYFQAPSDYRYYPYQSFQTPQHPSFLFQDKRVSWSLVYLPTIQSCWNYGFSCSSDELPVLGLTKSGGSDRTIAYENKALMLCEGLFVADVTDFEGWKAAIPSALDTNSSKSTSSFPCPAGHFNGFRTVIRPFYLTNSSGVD
UniProt P07195, whole entry, looked up: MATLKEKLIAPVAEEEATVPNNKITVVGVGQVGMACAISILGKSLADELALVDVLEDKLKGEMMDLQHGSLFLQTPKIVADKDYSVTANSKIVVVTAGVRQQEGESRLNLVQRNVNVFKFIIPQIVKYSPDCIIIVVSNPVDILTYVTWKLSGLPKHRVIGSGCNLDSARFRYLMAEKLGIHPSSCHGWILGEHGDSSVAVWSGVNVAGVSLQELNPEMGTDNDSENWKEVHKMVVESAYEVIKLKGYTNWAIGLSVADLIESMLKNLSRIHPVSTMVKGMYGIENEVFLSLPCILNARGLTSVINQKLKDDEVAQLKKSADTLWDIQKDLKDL

Assays:
Experiment in all cases: log2 fold change, soluble protein after heating vs DMSO (PISA); higher = thermal stabilisation; K562 lysate, 10 uM; active = over 0.2 and 3.5 SD of the protein, either way, in both replicates (recomputed)
erlotinib = compound: C#Cc1cccc(Nc2ncnc3cc(OCCOC)c(OCCOC)cc23)c1 [erlotinib]
Method in brief: (§1)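 Values give the log-two fold change in thermal stability against solvent controls, from duplicates. Crude K562 extract at 1 mg/mL protein, made by dounce homogenisation in PBS pH 7.4 with 1 mM MgCl2, was treated with 10 μM compound for 30 min. After 3 min heating across 48°C-58°C, aliquots were pooled, adjusted to 0.5% NP-40 at 4°C and centrifuged at 21,000xg for 90 min. The supernatant was measured by TMTpro 16plex LC-MS/MS with channel sums equalised.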

[1] = compound: C/C(=N\NC(=O)C1=CC(=CC=C1)S(=O)(=O)N2CCOCC2)/C3=C(C=CC(=C3)Cl)O
Method in brief: as §1

[2] = compound: C1=CC(=CC=C1C2=NC3=C(N2)C=C(C=C3)C(=O)N)OC4=CC=C(C=C4)Cl
Method in brief: as §1

[3] = compound: C1=CC2=C(C=CC(=C2)/C=C\3/C(=O)NC(=NCC4=CC=CS4)S3)N=C1
Method in brief: as §1

[4] = compound: C1=CC2=NC=CN=C2C=C1/C=C/3\C(=O)NC(=O)S3
Method in brief: as §1

[5] = compound: C1=CC=C2C(=C1)C3=NNC4=CC=CC(=C43)C2=O
Method in brief: as §1

[6] = compound: C1CCN(C1)C(=O)NC2=CC=CC(=C2)NC3=NC=C(C(=N3)NCCC4=CN=CN4)Br
Method in brief: as §1

[7] = compound: C1CN(CCC1(CC2=CC=C(C=C2)Cl)N)C3=NC=NC4=C3C=CN4
Method in brief: as §1

ibrutinib = compound: C=CC(=O)N1CCC[C@@H](n2nc(-c3ccc(Oc4ccccc4)cc3)c3c(N)ncnc32)C1 [ibrutinib]
Method in brief: as §1

[8] = compound: CC(C)C1=C2N=C(C=C(N2N=C1)NCC3=CC=CC=C3)NCCCCCCN
Method in brief: as §1

[9] = compound: CC1=C(C(CC(=O)N1)C2=CC=C(C=C2)C(F)(F)F)C(=O)NC3=C(C=C4C(=C3)C=NN4)F
Method in brief: as §1

[10] = compound: CC1=C(C2=C(C=C1)C(=O)C3=CC=CC=C3N2CCCN)C
Method in brief: as §1

[11] = compound: C1=CC=C(C=C1)C2=NC(=C(N2)C3=CC=NC=C3)C4=CC(=C(C=C4)Cl)O
Method in brief: as §1

IRAK-1-4 Inhibitor I = compound: C1COCCN1CCN2C3=CC=CC=C3N=C2NC(=O)C4=CC(=CC=C4)[N+](=O)[O-] [IRAK-1-4 Inhibitor I]
Method in brief: as §1

ralimetinib = compound: CC(C)(C)Cn1c(N)nc2ccc(-c3[nH]c(C(C)(C)C)nc3-c3ccc(F)cc3)nc21 [ralimetinib]
Method in brief: as §1

[12] = compound: CC(C)(O)CC(=O)NCCn1ccc2ncnc(Nc3ccc(Oc4cccc(C(F)(F)F)c4)c(Cl)c3)c21
Method in brief: as §1

[13] = compound: CC1=C(C=C(C=C1)NC(=O)C2=CC(=CC=C2)C(C)(C)C#N)NC3=CC4=C(C=C3)N=CN(C4=O)C
Method in brief: as §1

[14] = compound: CC1=C(C=C(C=C1)NC(=O)C2=CC(=CC=C2)N(C)C)NC(=O)C3=CC=C(C=C3)O
Method in brief: as §1

[15] = compound: CC(=O)c1cnc2ccc(-c3cc(Cl)c(O)c(Cl)c3)nc2c1N[C@H]1CC[C@H](CN(C)C)CC1
Method in brief: as §1

[16] = compound: CC1=CC=C(C=C1)SC2=C3C=C(SC3=CN=C2)C(=O)N
Method in brief: as §1

Row | Target | log2 fold change (erlotinib) | log2 fold change [1] | log2 fold change [2] | log2 fold change [3] | log2 fold change [4] | log2 fold change [5] | log2 fold change [6] | log2 fold change [7] | log2 fold change (ibrutinib) | log2 fold change [8] | log2 fold change [9] | log2 fold change [10] | log2 fold change [11] | log2 fold change (IRAK-1-4 Inhibitor I) | log2 fold change (ralimetinib) | log2 fold change [12] | log2 fold change [13] | log2 fold change [14] | log2 fold change [15] | log2 fold change [16]
1 | LNX2 (UniProt Q8N448) | inactive: 0.068 | inactive: -0.227 | inactive: -0.216 | inactive: -0.068 | inactive: 0.027 | inactive: 0 | inactive: -0.129 | inactive: 0.03 | inactive: 0.069 | inactive: -0.187 | inactive: -0.003 | inactive: -0.065 | – | – | – | – | – | – | – | –
2 | LDLRAP1 (UniProt Q5SW96) | inactive: 0.081 | inactive: -0.142 | inactive: -0.035 | inactive: 0.125 | inactive: -0.024 | inactive: -0.001 | inactive: -0.025 | inactive: -0.007 | inactive: 0.125 | inactive: -0.056 | inactive: -0.026 | inactive: 0.047 | inactive: -0.028 | inactive: 0.032 | inactive: 0.01 | inactive: 0.031 | inactive: -0.012 | inactive: 0.066 | – | –
3 | LRIF1 (UniProt Q5T3J3) | inactive: -0.015 | inactive: 0.11 | inactive: 0.046 | active: -0.301 | – | inactive: 0.1 | inactive: -0.031 | inactive: -0.009 | – | inactive: 0.089 | inactive: -0.143 | inactive: -0.044 | inactive: 0 | inactive: -0.02 | inactive: -0.09 | inactive: -0.055 | inactive: -0.031 | inactive: 0.046 | inactive: -0.088 | inactive: -0.197
4 | LMO4 (UniProt P61968) | inactive: -0.054 | inactive: -0.1 | inactive: -0.048 | inactive: 0.089 | – | inactive: -0.096 | – | – | – | inactive: 0.02 | – | inactive: -0.126 | inactive: 0.052 | inactive: -0.034 | inactive: -0.004 | inactive: 0.045 | inactive: 0.022 | inactive: 0.017 | inactive: -0.029 | inactive: 0.063
5 | LGALS3 (UniProt P17931) | inactive: 0.065 | inactive: 0.418 | inactive: -0.021 | inactive: 0.081 | inactive: 0.114 | inactive: 0.046 | inactive: -0.136 | inactive: -0.16 | inactive: -0.166 | inactive: 0.011 | inactive: 0.161 | inactive: 0.396 | inactive: -0.05 | inactive: -0.193 | inactive: -0.104 | inactive: 0.168 | inactive: -0.022 | inactive: 0.015 | inactive: -0.056 | inactive: -0.067
6 | LEG1 (UniProt Q6P5S2) | inactive: 0.017 | – | inactive: -0.062 | – | inactive: -0.062 | – | inactive: -0.171 | inactive: 0.111 | inactive: -0.081 | inactive: -0.129 | inactive: 0.031 | inactive: 0.1 | inactive: -0.254 | inactive: -0.178 | inactive: 0.049 | inactive: 0.06 | inactive: 0.124 | inactive: -0.045 | inactive: -0.048 | inactive: -0.004
7 | LDLR (UniProt P01130) | inactive: 0.08 | inactive: -0.157 | inactive: -0.11 | inactive: -0.062 | inactive: -0.007 | inactive: -0.006 | inactive: -0.033 | inactive: 0.094 | inactive: 0.043 | inactive: -0.133 | inactive: -0.276 | inactive: 0.035 | inactive: -0.012 | inactive: -0.087 | inactive: -0.003 | inactive: -0.085 | inactive: 0.006 | inactive: 0.014 | inactive: -0.012 | inactive: 0
8 | LINGO1 (UniProt Q96FE5) | inactive: 0.036 | inactive: 0.09 | inactive: -0.079 | inactive: -0.016 | inactive: -0.014 | inactive: -0.026 | inactive: 0.034 | inactive: 0.019 | inactive: -0.011 | inactive: -0.046 | – | inactive: -0.001 | inactive: 0.018 | inactive: 0.033 | inactive: -0.008 | inactive: -0.07 | – | inactive: -0.037 | inactive: -0.037 | inactive: -0.001
9 | LSM14B (UniProt Q9BX40) | inactive: -0.053 | – | inactive: -0.006 | – | inactive: 0.031 | – | – | – | inactive: -0.139 | inactive: 0.033 | inactive: 0.013 | – | inactive: -0.017 | inactive: 0.083 | inactive: -0.112 | inactive: -0.033 | inactive: 0.09 | inactive: -0.034 | inactive: 0.029 | inactive: 0.008
10 | LRRCC1 (UniProt Q9C099) | inactive: 0.089 | inactive: -0.022 | inactive: 0.092 | inactive: -0.012 | – | inactive: -0.085 | inactive: -0.019 | inactive: 0.054 | – | inactive: 0.031 | inactive: -0.036 | inactive: -0.097 | inactive: 0.031 | inactive: 0.123 | inactive: -0.237 | inactive: -0.225 | inactive: 0.135 | inactive: -0.012 | inactive: -0.12 | inactive: 0.06
11 | LRFN4 (UniProt Q6PJG9) | inactive: 0.017 | inactive: 0.015 | inactive: 0.003 | inactive: -0.075 | – | inactive: 0.045 | inactive: 0.005 | inactive: -0.034 | – | inactive: -0.066 | – | inactive: 0.095 | – | – | – | – | inactive: -0.121 | – | inactive: -0.078 | inactive: -0.133
12 | LSM2 (UniProt Q9Y333) | inactive: -0.002 | inactive: -0.005 | inactive: 0.006 | inactive: -0.045 | inactive: 0.007 | inactive: -0.031 | inactive: 0.033 | inactive: 0.017 | inactive: -0.045 | inactive: 0.022 | inactive: -0.079 | inactive: 0.007 | inactive: 0.011 | inactive: 0.019 | inactive: -0.036 | inactive: -0.001 | inactive: 0.02 | inactive: -0.004 | inactive: -0.005 | inactive: -0.005
13 | LDHC (UniProt P07864) | inactive: 0.02 | inactive: -0.361 | inactive: 0 | inactive: -0.018 | inactive: 0.056 | inactive: 0.015 | inactive: -0.001 | inactive: 0.019 | inactive: -0.125 | inactive: 0.001 | inactive: -0.058 | inactive: 0 | inactive: -0.055 | inactive: -0.041 | inactive: 0.053 | inactive: 0.055 | – | inactive: 0.076 | inactive: -0.021 | inactive: 0.08
14 | LSM7 (UniProt Q9UK45) | inactive: -0.004 | inactive: 0.029 | inactive: -0.003 | inactive: -0.019 | inactive: -0.023 | inactive: 0.008 | inactive: 0.009 | inactive: 0 | inactive: -0.057 | inactive: 0.012 | inactive: -0.076 | inactive: -0.026 | inactive: -0.043 | inactive: 0.026 | inactive: -0.021 | inactive: 0.018 | inactive: 0.028 | inactive: -0.002 | inactive: -0.013 | inactive: -0.021
15 | LRRC14 (UniProt Q15048) | inactive: 0.031 | inactive: -0.035 | inactive: 0.046 | inactive: 0.121 | inactive: -0.08 | inactive: -0.013 | inactive: -0.126 | inactive: 0.062 | inactive: 0.071 | inactive: -0.09 | inactive: 0.01 | inactive: -0.148 | inactive: 0.052 | inactive: 0.066 | inactive: 0.007 | inactive: -0.049 | inactive: 0.031 | inactive: 0.044 | inactive: -0.038 | inactive: 0.1
16 | LEMD3 (UniProt Q9Y2U8) | inactive: -0.073 | – | inactive: 0.096 | – | inactive: -0.174 | – | – | – | inactive: 0.154 | inactive: -0.018 | inactive: -0.034 | – | inactive: 0.076 | inactive: -0.06 | inactive: 0.18 | inactive: -0.018 | inactive: 0.069 | inactive: -0.251 | inactive: -0.133 | inactive: 0
17 | LGALS3BP (UniProt Q08380) | inactive: -0.154 | inactive: 0.293 | inactive: 0.064 | inactive: 0.331 | – | inactive: -0.203 | inactive: 0.018 | inactive: -0.171 | – | inactive: 0 | inactive: 1.31 | inactive: 0.453 | – | – | – | – | inactive: -0.009 | – | inactive: 0.061 | inactive: 0
18 | LDHB (UniProt P07195) | inactive: -0.004 | inactive: 0.006 | inactive: 0.008 | inactive: 0.001 | inactive: 0 | inactive: 0.02 | inactive: 0.007 | inactive: -0.016 | inactive: 0.006 | inactive: -0.002 | inactive: -0.014 | inactive: -0.006 | inactive: -0.007 | inactive: 0.009 | inactive: 0 | inactive: -0.02 | inactive: 0.012 | inactive: -0.02 | inactive: 0.002 | inactive: -0.025

Record cards (already shown). Values in the order: log2 fold change (erlotinib) | log2 fold change [1] | log2 fold change [2] | log2 fold change [3] | log2 fold change [4] | log2 fold change [5] | log2 fold change [6] | log2 fold change [7] | log2 fold change (ibrutinib) | log2 fold change [8] | log2 fold change [9] | log2 fold change [10] | log2 fold change [11] | log2 fold change (IRAK-1-4 Inhibitor I) | log2 fold change (ralimetinib) | log2 fold change [12] | log2 fold change [13] | log2 fold change [14] | log2 fold change [15] | log2 fold change [16]
LRRCC1 (UniProt Q9C099) in the list: inactive: 0.089 | inactive: -0.022 | inactive: 0.092 | inactive: -0.012 | – | inactive: -0.085 | inactive: -0.019 | inactive: 0.054 | – | inactive: 0.031 | inactive: -0.036 | inactive: -0.097 | inactive: 0.031 | inactive: 0.123 | inactive: -0.237 | inactive: -0.225 | inactive: 0.135 | inactive: -0.012 | inactive: -0.12 | inactive: 0.06
LSM14B (UniProt Q9BX40) in the list: inactive: -0.053 | – | inactive: -0.006 | – | inactive: 0.031 | – | – | – | inactive: -0.139 | inactive: 0.033 | inactive: 0.013 | – | inactive: -0.017 | inactive: 0.083 | inactive: -0.112 | inactive: -0.033 | inactive: 0.09 | inactive: -0.034 | inactive: 0.029 | inactive: 0.008
